In the supplement of paper PMC12024529:
Where a name gives a salt, the structure may show the parent alone. Some of the results follow. Plates or batches differ in their baseline, so values are only roughly comparable.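 The cells are HEK293 lines stably expressing B-domain-deleted factor VIII fused to Gaussia luciferase, either wild type or a misfolding-prone missense mutant. Each score is mean luminescence from triplicate wells minus the DMSO mean, divided by the DMSO standard deviation; a score of 2 or more counts as a hit, and low scores may reflect lower secretion or poorer cell viability.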

Tested on: HEK293 p.N1941S BDD-FVIII-Gluc
Experiment: secreted FVIII-Gluc luciferase Z-score vs DMSO control; higher = more FVIII-Gluc secretion
Settings: 5 µM; 24 h

| Compound | secreted FVIII-Gluc luciferase Z-score |
| --- | --- |
| C[N+](C)(CCOc1ccccc1)Cc1ccccc1.O=C([O-])c1cc2ccccc2cc1O [Bephenium Hydroxynaphthoate] | inactive: 1.35 |
| O=C(c1ccccc1)c1ccc2n1CCC2C(=O)O (stereo not drawn) [Ketorolac (Toradol)] | inactive: -3.27 |
| CCn1cc(C(=O)O)c(=O)c2cnc(N3CCCC3)nc21 [Piromidic Acid] | inactive: 1.49 |
| Nc1ccc(C(=O)O)c(O)c1 [Aminosalicylate sodium] | inactive: 0.54 |
| COc1ccccc1N1CCN(CCCNc2cc(=O)n(C)c(=O)n2C)CC1 [Urapidil HCl] | inactive: -1.4 |
| CC(=O)NS(=O)(=O)c1ccc(NC(=O)c2ccccc2C(=O)O)cc1 [Phthalylsulfacetamide] | active: 2.39 |
| Cc1cccc(N(C)C(=S)Oc2ccc3ccccc3c2)c1 [Tolnaftate] | inactive: -1.85 |
| CC1(C)O[C@@H]2C[C@H]3[C@@H]4C[C@H](F)C5=CC(=O)C=C[C@]5(C)[C@@]4(F)[C@@H](O)C[C@]3(C)[C@]2(C(=O)CO)O1 [Fluocinolone acetonide (Flucort-N)] | active: 9.62 |
| CO[C@H]1O[C@@H]2O[C@@]3(C)CC[C@H]4[C@H](C)CC[C@@H]([C@H]1C)[C@@]24OO3 [Artemether (SM-224)] | inactive: -0.572 |
| OCCOCCN1CCN(C2=Nc3ccccc3Sc3ccccc32)CC1 [Quetiapine fumarate (Seroquel)] | inactive: 0.0379 |
| CC(=O)O[C@]1(C(C)=O)CC[C@H]2[C@@H]3C[C@H](C)C4=CC(=O)C=C[C@]4(C)[C@@]3(F)[C@@H](O)C[C@@]21C [Fluorometholone Acetate] | active: 3.89 |
| Cc1ccc(O)c([C@H](CCN(C(C)C)C(C)C)c2ccccc2)c1 [Tolterodine tartrate (Detrol LA)] | inactive: -1.04 |
| COC(=O)C1=C(C)NC(C)=C(C(=O)OCCN(C)Cc2ccccc2)C1c1cccc([N+](=O)[O-])c1 (stereo not drawn) [Nicardipine HCl] | inactive: 0.578 |
| C[C@@H]1C[C@H]2[C@@H]3CCC4=CC(=O)C=C[C@]4(C)[C@@]3(F)[C@@H](O)C[C@]2(C)[C@@]1(O)C(=O)CO [Dexamethasone] | active: 4.29 |
| CCOc1nc2cccc(C(=O)O)c2n1Cc1ccc(-c2ccccc2-c2nnn[nH]2)cc1 [Candesartan (Atacand)] | inactive: -0.519 |
| C[N+]1(C)[C@@H]2CC[C@H]1C[C@@H](OC(=O)C(O)c1ccccc1)C2 (stereo partly drawn) [Homatropine Methylbromide] | inactive: 0.666 |
| C[N+](C)(C)CC(O)CC(=O)[O-] (racemic) [DL-Carnitine hydrochloride] | inactive: -1.33 |
| Nc1ccn([C@@H]2O[C@H](CO)[C@@H](O)[C@H]2O)c(=O)n1 [Cytidine] | inactive: 0.147 |
| Cc1cc(C2CCCCC2)n(O)c(=O)c1 [Ciclopirox (Penlac)] | inactive: -3.4 |
| CC(=O)[C@]1(O)Cc2c(O)c3c(c(O)c2[C@@H](O[C@H]2C[C@H](N)[C@H](O)[C@H](C)O2)C1)C(=O)c1ccccc1C3=O [Idarubicin HCl] | inactive: -10.9 |
| O=C1[C@H](CC[C@H](O)c2ccc(F)cc2)[C@@H](c2ccc(O)cc2)N1c1ccc(F)cc1 [Ezetimibe (Zetia)] | inactive: -1.6 |
| O=C(C1CCCCC1)N1CC(=O)N2CCc3ccccc3C2C1 (stereo not drawn) [Praziquantel (Biltricide)] | inactive: 0.592 |
| C[C@]12CCC3=C4CCC(=O)C=C4CC[C@H]3[C@@H]1CC[C@@]2(O)CC#N [Dienogest] | inactive: -0.286 |
| Cc1ccc(C(=O)Nc2ccc(CN3CCN(C)CC3)c(C(F)(F)F)c2)cc1C#Cc1cnc2cccnn12 | inactive: -5.13 |
| N#Cc1ccc(C(c2ccc(C#N)cc2)n2cncn2)cc1 [Letrozole] | inactive: -0.796 |
| Nc1ncnc2c1ncn2[C@@H]1O[C@H](CO)[C@@H](O)[C@@H]1O [Vidarabine (Vira-A)] | inactive: -0.359 |
| CS(=O)(=O)c1ccc([C@@H](O)[C@@H](CF)NC(=O)C(Cl)Cl)cc1 [Florfenicol] | inactive: -0.669 |
| CC(=O)OCC(=O)[C@@]1(O)CC[C@H]2[C@@H]3CCC4=CC(=O)C=C[C@]4(C)[C@H]3[C@@H](O)C[C@@]21C [Prednisolone acetate (Omnipred)] | active: 6.76 |

Some of the entries so far, bar-delimited.
Compound | secreted FVIII-Gluc luciferase Z-score
Cc1cccc(N(C)C(=S)Oc2ccc3ccccc3c2)c1 [Tolnaftate] | inactive: -1.85
CC1(C)O[C@@H]2C[C@H]3[C@@H]4C[C@H](F)C5=CC(=O)C=C[C@]5(C)[C@@]4(F)[C@@H](O)C[C@]3(C)[C@]2(C(=O)CO)O1 [Fluocinolone acetonide (Flucort-N)] | active: 9.62
